Test results from PMC10163288.
The other results are listed elsewhere or left out.

B1: il2ra_site2_3nfp_normal_mot_HHH_b2_06150_000000217_0001_39_53_H_._HHH_b1_07298_af2_0001_0000600027_0000001_0 (protein)
chain: SSSSDEEEKVRRLLEQLEELLEEGDEEKFRELVAEVAHLIFEANNSELFFLLAEILFEAEQSSSS
B2: il2ra_site1_3nfp_sap_25_mot_HHH_b1_04735_000000141_0001_19_38_H_._HHH_b1_07714_af2_0001_0000100005_0000001_0_0001_af2pred_0001_af2pred_swapped (protein)
chain: SEAVELAREALKILPPRAKRLLSQVLAKLLREGDEEAMRELVEEVLELAKHDPREAEKFLEEILK
B3: il2ra_site2_2erj_sap_20_mot_HHH_b1_04154_000000022_0001_1_15_H_._HHH_b1_05101_0001_0000300007_0000001_0_0001_af2pred_0001_af2pred (protein)
chain: SSSSSSEEEEIVEELVEKFGLSEEQKELLEELAKLAHEAGYDEEVIRAVLERAARTLAELSSSSS
B4: il2ra_site2_2erj_sap_27_mot_HHH_b1_03572_af2_000000102_0001_41_56_H_._HHH_b2_03105_0001_0000200007_0000001_0_0001 (protein)
chain: SSSDNLHFIFEVAVRLMRLLQEGNEEEAEQLIKEAREFAEENGDELSRENLEEIFEHLKRASSSS
B5: il2ra_site1_1z92_sap_14_mot_1581cc1c700002558836ca695aafbf97_0001_1_af2_000000099_0001_17_32_H_._d5167a162c519d043ddc16d89768c28c_0001_1_0001_0000200019_0000001 … (protein)
chain: SSSSSDEERNARIVVRAIVRLAGLSEEDEEELRQIAKELVEEGVSWEEISRILEELVLGSSSSSS
B6: il2ra_site2_3nfp_sap_19_mot_9cf93245260f2973e193b933f07ad219_0001_000000192_0001_54_65_H_._HHH_b2_06761_0001_0000300029_0000001_0_0001 (protein)
chain: SSSSDEHHRVWELIHEAFELLRRGNPEEAEEVVREALEIARELGDEVARRSAEELLKAIEQSSSS
B7: il2ra_site1_3nfp_normal_mot_HHH_b1_02681_af2_000000162_0001_42_56_H_._HHH_b2_02997_0001_0000500033_0000001_0 (protein)
chain: SSSSDSVEIAKEVDELLRRIVKTDDDEEQRELERLVKELAEEANSPLAERLLRQLEELLNSSSSS
B8: il2ra_site1_2b5i_normal_mot_HHH_b2_04353_af2_000000128_0001_1_17_H_._HHH_b2_00272_af2_0001_0000400018_0000001_0_af2pred_0001_af2pred_1 (protein)
chain: SSSSSDEEEEVLELYREASRLWQNGDPEEARRVLEQALEIAEELNDERIAKDIEHILKLASSSSS
B9: il2ra_site1_2b5i_sap_15_mot_HHH_b1_02715_000000105_0001_23_40_H_._9daacd37e3baa650618043516f9fc948_0001_af2_0001_0000300013_0000001_1_0001_af2pred_0001_af2pred_ … (protein)
chain: SSSSDEAAEEAWELMREANELLRNGDPEEARKVLEEALELAERAGSKSLAKSIEVMLRLFESSSS
B10: il2ra_site2_2erj_normal_mot_HHH_b1_04810_000000187_0001_1_15_H_._HHH_b1_06471_af2_0001_0000100004_0000001_0 (protein)
chain: SSSSDEEERLKELEEQLEKLLEEGDEEELAEVLFELLELARQLQDDEAVRLAWRALRYILSSSSS
B11: il2ra_site1_1z92_sap_21_mot_HHH_b2_00026_af2_000000137_0001_19_35_H_._HHH_b1_07606_0001_0000200013_0000001_0_0001_af2pred_0001_af2pred_1 (protein)
chain: SREEQEEEVKEAAENNDPELLRELLELAERDAGDPRLATQFLVLLIARVLNIPPEEARKIVEEVK
B12: il2ra_site2_2erj_normal_mot_HHH_b1_08162_af2_000000254_0001_40_56_H_._HHH_b2_07130_0001_0000100005_0000001_0 (protein)
chain: SSSSDLEEEVERLLEEAKRLLEEGNPEEARKVLSRAFEIAYQLGNIELASEIIELAEKIVNSSSS
B13: il2ra_site2_2erj_normal_mot_HHH_b2_06603_af2_000000059_0001_40_56_H_._HHH_b1_03372_0001_0000100007_0000001_0_af2pred_0001_af2pred (protein)
chain: SSSSDEEELAELLNRIARALMRGDEEEVRELVERLRELAEELNDEEAERSVEFVERILKGSSSSS
B14: il2ra_site1_3nfp_normal_mot_HHH_b1_01231_af2_000000170_0001_1_16_H_._HHH_b1_01231_0001_0000400032_0000001_0 (protein)
chain: SSSSDEEARRLLQEALRLAFEGDAEEAERVLREAEEIAERDGNEALVKQIELALKAIERLLSSSS
B15: il2ra_site1_2b5i_sap_16_mot_HHH_b1_01346_af2_000000027_0001_1_20_H_._HHH_b1_01815_0001_0000500021_0000001_0_0001_af2pred_dldesign_0_af2pred (protein)
chain: SSSSDEKYDEVDRLFNEALKLKQAGKKEEAIKKLEEALELAKKLKDPKIIAELQTFLDWLKSSSS
B16: il2ra_site2_2erj_normal_mot_6ec3e94b46d95805cdcdc10c0c108f03_0001_af2_000000040_0001_36_50_H_._HHH_b1_04625_0001_0000500028_0000001_0 (protein)
chain: SSSSDEELKFAYEAANRLMHLISNGNPEEARELVEEAREELERLGNPELAEALEEHFRLLRSSSS
B17: il2ra_site1_3nfp_normal_mot_HHH_b1_05162_af2_000000139_0001_1_18_H_._HHH_b1_01295_af2_0001_0000600036_0000001_0 (protein)
chain: SSSSSNERREIQELIKEATELSHEGNPEEAQKVLERALELAEEFGDELARRFIEHLLKLLSSSSS
B18: il2ra_site2_2erj_normal_mot_HHH_b1_07186_000000032_0001_43_57_H_._HHH_b1_08183_af2_0001_0000300017_0000001_0 (protein)
chain: SSSSDEIEERLVELILELHELLKEGDEEEIERVLEEIEKLAKEANTPIFLRYAELAFKDSSSSSS
B19: il2ra_site2_2erj_sap_16_mot_HHH_b2_06726_000000006_0001_1_16_H_._HHH_b1_02584_0001_0000700016_0000001_0_0001 (protein)
chain: SSSSDEEELKELLKEAEELLENGNPEEAWEVLRRAATLAWELNDFELWSKIAELLREIARSSSSS
B20: il2ra_site1_1z92_sap_23_mot_HHH_b1_08504_af2_000000168_0001_42_54_H_._HHH_b1_06710_0001_0000100005_0000001_0_0001 (protein)
chain: SSSDEEELKRSLRVAVKMAVELLGLDEEERRELEELAEELAERGVDPLEALKILDELARRLSSSS
B21: il2ra_site1_3nfp_normal_mot_HHH_b1_08357_af2_000000270_0001_1_19_H_._HHH_b1_08168_af2_0001_0000800059_0000001_0 (protein)
chain: SSSSDEWEELWRLIRELIELQRQGDEEEFEELFEEVIRLARELNDENAVRAAELVARAHNSSSSS
B22: il2ra_site1_3nfp_normal_mot_HHH_b1_08723_000000044_0001_1_15_H_._HHH_b1_04612_af2_0001_0000600036_0000001_0_af2pred_0001_af2pred (protein)
chain: SSSSSEKEELEELLREAHELYENGNPEEARKVLEEAIELAEELNSENAVKFLRAILRLAKSSSSS
B23: il2ra_site1_1z92_sap_10_mot_HHH_b2_07060_000000038_0001_38_54_H_._HEEHE_2030_0001_0000100002_0000001_0_0001_af2pred_0001_af2pred_1 (protein)
chain: SLEELLQRAVEDIARLAGVPSFEVEVHNGHVEVHLKGDETRARTAAKIIEELAREAGVPVEVEVE
B24: il2ra_site1_3nfp_sap_11_mot_01923d483164837742cf829bee572cc5_0001_af2_000000153_0001_17_30_H_._HHH_b1_07621_0001_0000200007_0000001_0_0001_af2pred_0001_af2pred_ … (protein)
chain: SSSSSDEEEYVEQVLKQAENLERRGNPEAARRYLRSLLRALEALNSPLYEEVERLLEEIEESSSS

target: il2ra, P01589; experiment: yeast display titration

Apparent Kd, inactive:
B1 no binding seen
B2 no binding seen
B3 no binding seen
B4 no binding seen
B5 no binding seen
B6 no binding seen
B7 > 139 nM
B8 no binding seen
B9 no binding seen
B10 no binding seen
B11 no binding seen
B12 no binding seen
B13 no binding seen
B14 no binding seen
B15 no binding seen
B16 no binding seen
B17 no binding seen
B18 no binding seen
B19 no binding seen
B20 no binding seen
B21 no binding seen
B22 no binding seen
B23 no binding seen
B24 no binding seen

2 successive entries out of the list so far, quoted:
Apparent Kd, inactive:
B16 no binding seen
B17 no binding seen
